Results are given in words; binding and its absence hold for the method and conditions named. Binding seen in cells or lysates may run through a third protein. Some entries that bind do so weakly or less than the wild type. Tags and fused reporters may be left off the sequences shown.
T1: mitofusin 1 (Mfn1), endogenous rat (rat (endogenous in heart and neonatal cardiomyocytes)) (UniProt Q8R4Z9)
T1 sequence: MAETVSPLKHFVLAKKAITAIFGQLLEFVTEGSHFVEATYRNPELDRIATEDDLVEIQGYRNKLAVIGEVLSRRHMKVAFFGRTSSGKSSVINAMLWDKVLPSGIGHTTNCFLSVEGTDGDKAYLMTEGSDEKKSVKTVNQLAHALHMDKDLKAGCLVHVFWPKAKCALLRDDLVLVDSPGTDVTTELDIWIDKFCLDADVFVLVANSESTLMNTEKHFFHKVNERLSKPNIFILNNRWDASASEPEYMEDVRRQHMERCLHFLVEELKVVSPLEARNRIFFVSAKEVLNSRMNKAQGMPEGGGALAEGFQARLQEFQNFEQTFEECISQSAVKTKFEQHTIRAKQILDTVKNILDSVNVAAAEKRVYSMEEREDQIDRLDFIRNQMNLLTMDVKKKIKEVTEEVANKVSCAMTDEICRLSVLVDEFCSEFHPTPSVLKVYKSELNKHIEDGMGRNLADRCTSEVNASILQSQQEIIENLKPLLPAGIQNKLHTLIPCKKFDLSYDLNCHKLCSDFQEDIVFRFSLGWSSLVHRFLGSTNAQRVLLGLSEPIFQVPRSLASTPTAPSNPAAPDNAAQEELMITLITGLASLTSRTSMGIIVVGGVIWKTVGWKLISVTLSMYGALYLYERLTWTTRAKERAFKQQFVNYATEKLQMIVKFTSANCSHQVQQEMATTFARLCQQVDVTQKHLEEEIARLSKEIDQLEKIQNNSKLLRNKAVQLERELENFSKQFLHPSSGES

By UniProt entry, the sequences of proteins in these tests, tags left out. Where a name states a change or a piece, a line headed by the entry shows the natural chain unless it says otherwise. Chains listed by the source or under a name are the forms on record and can include a tag or linker.
beta II protein kinase C (βIIPKC), endogenous rat (rat (endogenous in heart and neonatal cardiomyocytes)) (P68403-2, form named): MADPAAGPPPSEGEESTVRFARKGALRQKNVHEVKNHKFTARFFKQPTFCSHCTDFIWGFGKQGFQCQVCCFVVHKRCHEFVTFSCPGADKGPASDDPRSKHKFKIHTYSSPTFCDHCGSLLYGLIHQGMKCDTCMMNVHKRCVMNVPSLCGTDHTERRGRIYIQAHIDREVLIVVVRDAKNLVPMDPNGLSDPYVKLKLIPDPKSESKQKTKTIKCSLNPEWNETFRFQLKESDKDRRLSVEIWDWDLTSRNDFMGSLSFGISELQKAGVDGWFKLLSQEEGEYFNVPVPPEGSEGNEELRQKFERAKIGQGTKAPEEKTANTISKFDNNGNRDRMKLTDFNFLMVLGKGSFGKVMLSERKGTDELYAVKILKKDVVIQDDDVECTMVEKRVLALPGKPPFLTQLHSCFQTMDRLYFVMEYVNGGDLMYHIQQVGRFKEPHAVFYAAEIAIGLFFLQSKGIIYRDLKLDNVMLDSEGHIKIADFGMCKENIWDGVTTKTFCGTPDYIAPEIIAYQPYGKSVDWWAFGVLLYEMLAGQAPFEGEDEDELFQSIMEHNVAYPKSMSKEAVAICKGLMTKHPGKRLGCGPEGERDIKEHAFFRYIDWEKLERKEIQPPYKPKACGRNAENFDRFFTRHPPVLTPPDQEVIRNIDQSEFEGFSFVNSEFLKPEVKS

B1: mitofusin 1 (Mfn1), endogenous rat (enzyme, UniProt Q8R4Z9 1-741)
chain: T1 sequence

What was measured:
[1] = target: T1, mitofusin 1 (Mfn1), endogenous rat (rat (endogenous in heart and neonatal cardiomyocytes)); assay: co-IP; rat cardiac mitochondrial fraction (0.25 mg protein) with 2 μg anti-Mfn1 or anti-βIIPKC antibody in NaCl 150 mM, EDTA 5 mM, Tris-HCl 10 mM, Triton X100 0.1%, pH 7.4, 3 h at 4 °C, protein A/G agarose; western blot; hearts of sham, TAT-treated, βII_(V5-3)-treated or SAMβA-treated heart failure rats
[2] = target: beta II protein kinase C (βIIPKC), endogenous rat (rat (endogenous in heart and neonatal cardiomyocytes)) (UniProt P68403); assay: as above

| Molecule | binding [1] | binding [2] |
| --- | --- | --- |
| beta II protein kinase C (βIIPKC), endogenous rat (from UniProt P68403-2 1-673) (enzyme) | binds | – |
| B1 | – | binds |

From publication PMC6338754
